2 molecules from PMC10669480 can be followed below.

The assay addresses T1, Human Chloride Channel Accessory 2 (CLCA2), wildtype precursor (human) (UniProt Q9UQC9).
T1 sequence: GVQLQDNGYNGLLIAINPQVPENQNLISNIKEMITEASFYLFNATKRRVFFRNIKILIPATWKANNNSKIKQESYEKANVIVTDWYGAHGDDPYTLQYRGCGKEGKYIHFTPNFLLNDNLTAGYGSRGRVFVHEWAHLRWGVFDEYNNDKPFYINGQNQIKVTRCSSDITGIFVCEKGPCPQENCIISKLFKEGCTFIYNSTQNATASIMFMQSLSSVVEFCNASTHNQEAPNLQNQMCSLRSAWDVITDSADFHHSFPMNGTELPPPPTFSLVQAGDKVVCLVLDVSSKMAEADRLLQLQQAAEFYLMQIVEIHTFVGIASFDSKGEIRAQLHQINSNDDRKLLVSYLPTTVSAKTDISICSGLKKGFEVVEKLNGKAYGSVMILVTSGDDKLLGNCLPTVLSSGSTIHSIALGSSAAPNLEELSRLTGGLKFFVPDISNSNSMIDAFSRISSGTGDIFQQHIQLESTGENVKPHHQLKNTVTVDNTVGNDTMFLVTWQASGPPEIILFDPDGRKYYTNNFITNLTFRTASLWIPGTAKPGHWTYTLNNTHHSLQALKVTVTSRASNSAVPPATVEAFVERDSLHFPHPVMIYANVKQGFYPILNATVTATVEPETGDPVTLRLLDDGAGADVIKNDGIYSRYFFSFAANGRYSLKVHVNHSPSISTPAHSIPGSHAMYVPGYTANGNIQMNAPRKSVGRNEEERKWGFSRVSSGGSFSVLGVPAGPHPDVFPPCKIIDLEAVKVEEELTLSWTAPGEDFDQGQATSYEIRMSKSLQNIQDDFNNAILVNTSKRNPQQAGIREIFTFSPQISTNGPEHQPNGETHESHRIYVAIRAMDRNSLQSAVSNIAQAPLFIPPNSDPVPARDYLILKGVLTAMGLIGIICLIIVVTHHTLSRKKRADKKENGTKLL
The assay can be described thus: co-IP; HEK293T co-transfected or singly transfected; lysates after 48 h in 25 mM Tris pH 7.4, 150 mM NaCl, 2.5 mM MgCl2, 0.5 mM EDTA, 0.5% NP40, 1 mM DTT, 5% glycerol, 1% aprotinin; IP with anti-Myc or anti-Flag antibody and Protein A-Sepharose; blots probed with anti-Myc or anti-Flag.

These are yes or no findings as the source states them, for the method shown. In cells and extracts the contact can be indirect. Some entries that bind do so weakly or less than the wild type. Where a sequence is shown, tags or fusion partners need not be part of it.

B1: Human Chloride Channel Accessory 2 (CLCA2), wildtype precursor (protein, UniProt Q9UQC9 32-943)
chain: GVQLQDNGYNGLLIAINPQVPENQNLISNIKEMITEASFYLFNATKRRVFFRNIKILIPATWKANNNSKIKQESYEKANVIVTDWYGAHGDDPYTLQYRGCGKEGKYIHFTPNFLLNDNLTAGYGSRGRVFVHEWAHLRWGVFDEYNNDKPFYINGQNQIKVTRCSSDITGIFVCEKGPCPQENCIISKLFKEGCTFIYNSTQNATASIMFMQSLSSVVEFCNASTHNQEAPNLQNQMCSLRSAWDVITDSADFHHSFPMNGTELPPPPTFSLVQAGDKVVCLVLDVSSKMAEADRLLQLQQAAEFYLMQIVEIHTFVGIASFDSKGEIRAQLHQINSNDDRKLLVSYLPTTVSAKTDISICSGLKKGFEVVEKLNGKAYGSVMILVTSGDDKLLGNCLPTVLSSGSTIHSIALGSSAAPNLEELSRLTGGLKFFVPDISNSNSMIDAFSRISSGTGDIFQQHIQLESTGENVKPHHQLKNTVTVDNTVGNDTMFLVTWQASGPPEIILFDPDGRKYYTNNFITNLTFRTASLWIPGTAKPGHWTYTLNNTHHSLQALKVTVTSRASNSAVPPATVEAFVERDSLHFPHPVMIYANVKQGFYPILNATVTATVEPETGDPVTLRLLDDGAGADVIKNDGIYSRYFFSFAANGRYSLKVHVNHSPSISTPAHSIPGSHAMYVPGYTANGNIQMNAPRKSVGRNEEERKWGFSRVSSGGSFSVLGVPAGPHPDVFPPCKIIDLEAVKVEEELTLSWTAPGEDFDQGQATSYEIRMSKSLQNIQDDFNNAILVNTSKRNPQQAGIREIFTFSPQISTNGPEHQPNGETHESHRIYVAIRAMDRNSLQSAVSNIAQAPLFIPPNSDPVPARDYLILKGVLTAMGLIGIICLIIVVTHHTLSRKKRADKKENGTKLL
Take B1: the binding result is listed as “binds”.

B2: CLCA2 E165Q mutant, Flag-tagged (protein, UniProt Q9UQC9 32-943)
chain: GVQLQDNGYNGLLIAINPQVPENQNLISNIKEMITEASFYLFNATKRRVFFRNIKILIPATWKANNNSKIKQESYEKANVIVTDWYGAHGDDPYTLQYRGCGKEGKYIHFTPNFLLNDNLTAGYGSRGRVFVHQWAHLRWGVFDEYNNDKPFYINGQNQIKVTRCSSDITGIFVCEKGPCPQENCIISKLFKEGCTFIYNSTQNATASIMFMQSLSSVVEFCNASTHNQEAPNLQNQMCSLRSAWDVITDSADFHHSFPMNGTELPPPPTFSLVQAGDKVVCLVLDVSSKMAEADRLLQLQQAAEFYLMQIVEIHTFVGIASFDSKGEIRAQLHQINSNDDRKLLVSYLPTTVSAKTDISICSGLKKGFEVVEKLNGKAYGSVMILVTSGDDKLLGNCLPTVLSSGSTIHSIALGSSAAPNLEELSRLTGGLKFFVPDISNSNSMIDAFSRISSGTGDIFQQHIQLESTGENVKPHHQLKNTVTVDNTVGNDTMFLVTWQASGPPEIILFDPDGRKYYTNNFITNLTFRTASLWIPGTAKPGHWTYTLNNTHHSLQALKVTVTSRASNSAVPPATVEAFVERDSLHFPHPVMIYANVKQGFYPILNATVTATVEPETGDPVTLRLLDDGAGADVIKNDGIYSRYFFSFAANGRYSLKVHVNHSPSISTPAHSIPGSHAMYVPGYTANGNIQMNAPRKSVGRNEEERKWGFSRVSSGGSFSVLGVPAGPHPDVFPPCKIIDLEAVKVEEELTLSWTAPGEDFDQGQATSYEIRMSKSLQNIQDDFNNAILVNTSKRNPQQAGIREIFTFSPQISTNGPEHQPNGETHESHRIYVAIRAMDRNSLQSAVSNIAQAPLFIPPNSDPVPARDYLILKGVLTAMGLIGIICLIIVVTHHTLSRKKRADKKENGTKLL
Regarding B2, the binding result is recorded as “binds”.
